According to PubChem BioAssay AID1487 (National Center for Advancing Translational Sciences (NCATS), 2009):
“And” between values parts separate entries of the source, which are not always exact repeats. Equal values may be shown once. Some of the results follow. Further columns of the screen follow, without active or inactive calls. The list favours compounds with an active or inconclusive main result. Potencies come from curve fits of mixed quality, noted in brackets.

Assay: qHTS Assay for Modulators of Lamin A Splicing
Details: HeLa LMNA splicing GFP/RFP minigene ratio, 48 h
Summary of the method: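 S3 HeLa stable clones carrying a lamin A-EGFP splicing minigene plus DsRed2 were seeded at 600 cells/well in Opti-MEM with 2% FBS, pin-dosed and incubated 48 h at 37°C. Acumen cytometry (488 nm) gave the GFP/RFP total-intensity ratio.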

[1] = measured here: GFP splicing reporter channel
[2] = measured here: RFP viability control channel

Cc1ccc(C)c(N2CCN(c3ncnc4onc(C)c34)CC2)c1
AC50 [1]: 3.55 µM [falling, full curve, poor fit]

COc1cc([C@H]2c3cc4c(cc3[C@@H](O)[C@@H]3COC(=O)[C@H]23)OCO4)cc(OC)c1OC
AC50 [1]: 0.00316 µM [falling, full curve] | AC50 [2]: 0.00316 µM [falling, full curve]

Cc1c(N=Cc2c(O)n(Cc3ccco3)c(=O)[nH]c2=O)c(=O)n(-c2ccccc2)n1C
AC50 [1]: 1 µM [falling, full curve, poor fit] | AC50 [2]: 0.891 µM [falling, full curve, poor fit]

COc1ccc(CN2CCc3nc(N4CCN(c5ccc(F)cc5)CC4)ncc3C2)c(OC)c1OC
AC50 [2]: 11.2 µM [rising, partial curve, poor fit]

Cc1[nH]c2ccccc2c1C(=O)CN1CC=C(c2ccccc2)CC1
AC50 [1]: 15.8 µM [rising, single point] | AC50 [2]: 35.5 µM [rising, single point]

CCNC[C@H](O)c1cccc(O)c1
AC50 [1]: 0.316 µM [falling, full curve, poor fit] | AC50 [2]: 0.251 µM [falling, full curve]

COc1ccc(-n2c(/C=C/c3ccc4c(c3)OCO4)nc3ccccc3c2=O)cc1
AC50 [2]: 35.5 µM [rising, single point]

Cc1cc(C(=O)N=Nc2c(O)n(C)c3ccccc23)c(C)o1
AC50 [2]: 25.1 µM [rising, single point]

CCN(CC)c1ccc(N=Cc2c(O)n(-c3cc(OC)ccc3OC)c(=O)[nH]c2=O)cc1
AC50 [1]: 8.91 µM [rising, partial curve, poor fit] | AC50 [2]: 11.2 µM [rising, partial curve]

C[C@]12CC[C@H](O)CC1=CCC1C2CC[C@]2(C)C(=O)CC[C@@H]12 (stereo partly specified)
AC50 [1]: 14.1 µM [rising, single point] and 10 µM [rising, partial curve] | AC50 [2]: 35.5 µM [rising, single point] and 5.01 nM [falling, full curve, poor fit]

Cc1ccsc1C(=O)C1CCCN(Cc2ccccc2O)C1 (stereo unspecified)
AC50 [1]: 0.631 µM [falling, full curve, poor fit]

Nc1nc2ccc(Cl)cc2c2nc(-c3ccco3)nn12
AC50 [1]: 14.1 µM [falling, partial curve] | AC50 [2]: 8.91 µM [falling, partial curve]

CCCCOP(=O)(c1ccc(N(C)C)cc1)C(Nc1ccccc1)c1ccccc1 (stereo unspecified)
AC50 [1]: 6.31 µM [rising, partial curve] | AC50 [2]: 14.1 µM [rising, single point]
